The text below walks through data of patent US5780250A, “Immunoassay standards for polyaromatic hydrocarbon detection” (Strategic Diagnostics, Inc., priority 1996, dated 1998).

For the series the following is noted: for Mean phenanthrene value obtained with the immunoassay: mean of four water samples.

Read-outs that look alike come from different tables or passages of the source.

`c1ccc2c(c1)ccc1ccccc12` [phenanthrene]: the “% Recovery” value amounted to 102% (Phenanthrene added +5.0 ppb), 108% (Phenanthrene added +7.5 ppb), 107% (Phenanthrene added +20.0 ppb) and 102% (Phenanthrene added +40.0 ppb). In addition, the “Mean phenanthrene value obtained with the immunoassay” value worked out at 5.09 ppb (Phenanthrene added +5.0 ppb), 8.13 ppb (Phenanthrene added +7.5 ppb), 21.46 ppb (Phenanthrene added +20.0 ppb) and 40.91 ppb (Phenanthrene added +40.0 ppb).
